# Assay results published in PubChem BioAssay AID1347426 (Functional Genomics Laboratory (NCATS/FGL), 2020).
# In all, about 31,000 sequences went through this assay and about 1,400 (4.5%) were called active.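 Rule for the calls: active = median seed-adjusted z-score above 1 or below -1; inactive = the rest.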 The list shows a part of the results.
# Test: Novel Modifiers of Survival Motor Neuron (SMN) Protein: Gene Identification via Genome-wide siRNA Screen;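 note: luminescence tracks full-length SMN protein made from the SMN2 reporter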
# Settings: HEK293T SMN2-luciferase reporter, siRNA knockdown, 72 h; actives lie on both sides
# Procedure, shortened: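 Each of three siRNAs per gene is reverse-transfected (1 pmol) into reporter HEK293T cells whose luciferase output tracks SMN protein level. After 72 h culture, ONE-Glo luminescence is control-normalized, log10-transformed and MAD-standardized; Common Seed Analysis deprioritizes seed-driven hits.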
row,Sequence,median seed-adjusted z-score
1,GGAUGUAGGUUUUAGUACATT against KCNJ3,inactive: -0.0229
2,GGUGAACUCUACAACCGGATT against PDCD11,inactive: -0.335
3,GACCAAGUAUGAGCACGAATT against KRT16,inactive: -0.233
4,CGAGAUAACUACUGCCGAUTT against PCOLCE2,active: -1.15
5,CCAUUACACCGGCUGCUCUTT against AQP2,inactive: -0.433
6,GAAUUGACUUUAGAAGAAUTT against GUCA1C,inactive: -0.617
7,GAAACACCUCGAGACCAAATT against TXNDC9,inactive: -0.176
8,GCAUGGAGGUUGUCUAUGATT against MKRN3,inactive: 0.402
9,CGUACGGGCGCAUCAUUAATT against MINK1,inactive: -0.522
10,GCUUCUAUGUUUAACAUCUTT against ELOVL2,inactive: -0.456
11,GGAAGAUCAUUGGGCGAUATT against ABCF2,inactive: 0.0696
12,CACUGAACCAUAUCGAUGATT against DUSP13,inactive: -0.772
13,ACCUCUACCUGUCCAGCAUTT against GHSR,inactive: 0.18
14,GAAUGCUCCUUUACCAGAATT against GRB10,inactive: -0.0341
15,CCAAGUUAAUGAACGAAGATT against STAM,inactive: 0
16,AAUGAGGACUGUGAACUGATT against MAPK13,inactive: -0.491
17,ACUGGAACCUCAAUAUCUATT against TSPAN17,inactive: -0.0774
18,GGGUGAUUGGGUUACAGCATT against TRIM6,inactive: -0.137
19,AGCCUUCUGUGCUAAAUCATT against ARRB2,inactive: -0.153
20,CGACACCAAUCAGAAUUCUTT against DAB2,inactive: 0.678
21,CAGUCAUUUUCUAACUGAATT against IL15,inactive: -0.139
22,CGCCUGCCCUGAUGACUUUTT against JAG2,inactive: -0.234
23,GGACCUGUAUUGGGAACAATT against ASPHD2,inactive: -0.719
24,CGAACAACCUUUCAAAUCATT against PCDHB10,inactive: -0.09
25,UCACGUAGAGUCAUAUUUATT against HNRPA1P4,inactive: -0.906
26,GCCUUCCUCUGGAUAUCAATT against RBPMS,inactive: 0
27,GCGUGUCUUUGAGCGGACATT against PRRX1,inactive: -0.172
28,CCAGCAAACUCAACCAACATT against KCNJ6,active: -1.6
29,CUACCUGUCUUAUUUCAUATT against PI4KA,inactive: 0
30,AGGCCUUGGUGGAACAUGUTT against PSAP,inactive: 0.107

# 9 neighbouring records already listed:
row,Sequence,median seed-adjusted z-score
6,GAAUUGACUUUAGAAGAAUTT against GUCA1C,inactive: -0.617
7,GAAACACCUCGAGACCAAATT against TXNDC9,inactive: -0.176
8,GCAUGGAGGUUGUCUAUGATT against MKRN3,inactive: 0.402
9,CGUACGGGCGCAUCAUUAATT against MINK1,inactive: -0.522
10,GCUUCUAUGUUUAACAUCUTT against ELOVL2,inactive: -0.456
11,GGAAGAUCAUUGGGCGAUATT against ABCF2,inactive: 0.0696
12,CACUGAACCAUAUCGAUGATT against DUSP13,inactive: -0.772
13,ACCUCUACCUGUCCAGCAUTT against GHSR,inactive: 0.18
14,GAAUGCUCCUUUACCAGAATT against GRB10,inactive: -0.0341
